Measurements published in US12194082B2, “Compositions and methods for treatment of homocystinuria” (THE REGENTS OF THE UNIVERSITY OF COLORADO, priority 2016, dated 2025).

Test: Total weight and weight gain of treated KO mice
Assay type: in vivo

For “20NHS PEG-htCBS C15S: htCBS C15S PEGylated with ME-200GS PEG (20 kDa linear NHS ester-activated PEG)”, the “weight gain vs both control groups” value (KO male and female mice, day 21 to 36) was “significantly lower” and the total weight (KO male mice, 7.5 mg/kg 3x weekly, day 21) was “about 10 g”.
